Assay results reported in publication PMC5744976.
Results are given in words; binding and its absence hold for the method and conditions named. In cells and extracts the contact can be indirect. Some binding calls cover weakened binding; strength is not graded here.

By UniProt entry, the sequences of proteins in these tests, tags left out.
UniProt Q9Y113: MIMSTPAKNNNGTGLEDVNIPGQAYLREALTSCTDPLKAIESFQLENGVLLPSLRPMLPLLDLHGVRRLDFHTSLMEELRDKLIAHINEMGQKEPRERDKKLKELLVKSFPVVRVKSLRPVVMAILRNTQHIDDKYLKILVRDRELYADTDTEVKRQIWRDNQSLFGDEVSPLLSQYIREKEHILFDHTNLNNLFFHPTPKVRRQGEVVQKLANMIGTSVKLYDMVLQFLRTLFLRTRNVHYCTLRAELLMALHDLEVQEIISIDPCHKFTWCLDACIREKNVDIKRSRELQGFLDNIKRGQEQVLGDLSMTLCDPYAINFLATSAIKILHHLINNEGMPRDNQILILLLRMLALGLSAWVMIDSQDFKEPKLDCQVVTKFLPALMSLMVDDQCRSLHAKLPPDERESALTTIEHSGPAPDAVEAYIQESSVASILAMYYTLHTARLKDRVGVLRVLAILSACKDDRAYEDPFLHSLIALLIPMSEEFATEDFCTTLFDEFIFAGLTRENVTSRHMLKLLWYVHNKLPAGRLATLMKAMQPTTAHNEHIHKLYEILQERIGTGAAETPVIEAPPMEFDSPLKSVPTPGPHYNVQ

Target: T1, Chromatin-Linked Adapter for MSL Proteins (CLAMP) (D. melanogaster (endogenous in S2 and Kc cells)) (UniProt Q9V9N4)
T1 sequence: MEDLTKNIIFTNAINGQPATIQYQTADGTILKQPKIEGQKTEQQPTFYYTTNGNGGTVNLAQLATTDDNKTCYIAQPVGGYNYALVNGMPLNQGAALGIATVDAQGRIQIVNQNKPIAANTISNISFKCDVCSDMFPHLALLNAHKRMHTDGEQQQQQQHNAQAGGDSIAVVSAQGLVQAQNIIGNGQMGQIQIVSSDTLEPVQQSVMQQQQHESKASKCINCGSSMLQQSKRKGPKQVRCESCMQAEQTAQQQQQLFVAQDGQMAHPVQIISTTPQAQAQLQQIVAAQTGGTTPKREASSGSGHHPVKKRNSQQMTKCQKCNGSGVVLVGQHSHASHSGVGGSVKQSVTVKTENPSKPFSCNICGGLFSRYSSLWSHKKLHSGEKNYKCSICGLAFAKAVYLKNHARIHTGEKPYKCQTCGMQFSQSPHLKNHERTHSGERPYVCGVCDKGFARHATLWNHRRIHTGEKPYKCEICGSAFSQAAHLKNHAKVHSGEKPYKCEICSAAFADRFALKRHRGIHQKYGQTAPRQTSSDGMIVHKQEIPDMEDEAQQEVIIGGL
Test: co-IP; non-crosslinked immunoprecipitation of CLAMP (or NELF-B, IgG) from S2 and Kc cell lysates with antibody-coupled Dynabeads; western blotting for NELF-A and NELF-B

Q: For “Negative Elongation Factor B (from UniProt Q9Y113 1-594)”, which binding is on record?
A: binds

B1: Negative Elongation Factor A (protein, UniProt Q86NP2 1-1251)
chain: MANVRDSDTSLWLHNKLGTSNDSWINGSICSQLNKEVLRNIKECFPDLQTQVKLKLLLSFLHIPRRLVEEWKAELEEVIEVAGLDSELWVSMLAETMKTFPATSSLNTEISDYEDTRPIFIDMVNDLRKLVTKHSDLGMLPLECQYLNKNALISVVGQQPAPVKHFTLKRKPKSAQLRTELLHKSADAQSSLKKASAPTIPLRSRGMPRKMTDTTPLKGIPSRMPTTGFRSATVPGNAAQRPNLSRTPAGRKDGGIKLIEFTEQPLGYAAAKKRKREQQLEEQQKKQEQKQQQAAAAAAAAATAAASNAGDSSPTDAATASGGETPVTPTSANNSFEIKMEPQQLNQSAGSLEEPQDDEMSGKANMECDIETPEYATATLDFAQATSTSVADGQPGKPAVETKLKTPRTPKSAAKLNNNNNNNNNNSFNHTPKRIKQEIEIKSEEIIVPASIKLEKIETSPSTQRVSIQQQPPSLVQRTPHLLIRSSPQKRQNNGATTSAGTTTTTVGNTTIKMEKLDIKPMIRATGVSPSTSAGTTTTLLTPQQLRQAANPLANLPNNISVKITSAKAKAAAAAAATSSGSQTQSQQPQTLQVQQAPQQSHPPLLINSSTPVILASSPSAQRAKALALPSSSTSATTTTTIPSQAIKTMPLSQLKTATNSGPVIISQTIIQPAKRAQQQAGTSSAAAASQQQQQQQSQQQLLHQQIQQQTQQQAQLPQQPQQQQTQYILATPQQQPQQIQQQQQQQQPILPTLTSFSHSRPMPQTTTLYQATTPSGSGQTPTKILLKTSGSSSVVMTPLRQAQPQQATAVVSSNPPPLVATSAAVVSPGQTTLNIQNVQLPNRPVTIQPASQAAQQQHMQAQLQQQQPHPQHTIVANTTATQQPKLSQVLMQPTAAVGTSGVSALNVSPTSGKNKTIILTQKGVILRNIGGDMYQQIPISNVGNMQGLGGTTLMTTTAGPPSLVKTTPSSGVQLQQQQSGKQILPTLIPTSSLGGQHVIVQQQQPTNVIGNSQQQTIIRPVMTNVGGGLTTLPQGLTLIQRPGQQPQLVQVQAAPGSTQRTIITQSNTAAAASQQQPRQQQQQILVQHKPAPTLQQRLVTSTTSGGQGQQGNPNAGLPRTVQVQVQAQQQQQPQQQQATQQQSQQAPQRRGLSLSNEHVHKAHEMFRKANRVSRPDKALILGFMAGLRENPRPNNENVLVIKLGETEEKVQQDNGHTALCLVESHIRLDYNTGEWKTFQNYRLQDQSAAS
Q: B1 was tested. Which binding did it give?
A: binds
